# Values joined by “and” are separate entries in the source; they are usually repeats but may differ in a detail not shown here. Equal values may be shown once.
# Tested on: not listed separately
# Assay: Serum biochemical quantities, wild dolphins compared to Navy dolphins
# Type: in vivo, bottlenose dolphins (Tursiops truncatus)
# Details: wild (Sarasota Bay) over Navy dolphins
row,Molecule,"Serum biochemical quantity ratio, Ratio (wild dolphins compared to Navy dolphins)"
1,CC(C)C[C@H](NC(C)C(=O)O)C(=O)O (stereo partly drawn) [1-carboxyethylleucine],6.54
2,CC(N[C@H](C(=O)O)C(C)C)C(=O)O (stereo partly drawn) [1-carboxyethylvaline],5.4
3,CCC(C)C(=O)OC(CC(=O)[O-])C[N+](C)(C)C (stereo not drawn) [2-methylbutyrylcarnitine (C5)],1.68
4,CC(CO)C(=O)O (stereo not drawn) [3-hydroxyisobutyrate],1.82
5,CC(C)C(=O)C(=O)O [3-methyl-2-oxobutyrate],1.2
6,CCC(C)C(=O)C(=O)O (stereo not drawn) [3-methyl-2-oxovalerate],1.26
7,N=C(N)NCCCC(=O)O [4-guanidinobutanoate],6.38
8,N[C@@H](CC(O)C(=O)O)C(=O)O (stereo partly drawn) [4-hydroxyglutamate],4.78
9,CC(C)CC(=O)C(=O)O [4-methyl-2-oxopentanoate],1.22
10,NCC(CC[C@H](N)C(=O)O)OC1O[C@H](CO)[C@H](O)[C@H](O)[C@H]1O (stereo partly drawn) [5-(galactosylhydroxy)-L-lysine],0.90
11,O=C1CC[C@@H](C(=O)O)N1 [5-oxoproline],1.08
12,"CCCCCCCCCCCCC/C=C/[C@@H](O)[C@H](CO)NC(=O)CCCCCCCCCCCCC [CER (14:0), ceramide (CER) 14:0]",1.06
13,CC(=O)N[C@@H](C)C(=O)O [N-acetylalanine],2.31
14,CC(=O)NCC(=O)O [N-acetylglycine],1.13
15,CC(=O)NCCCCN [N-acetylputrescine],1.57
16,CC(=O)N[C@H](C(=O)O)[C@@H](C)O [N-acetylthreonine],1.93
17,N[C@@H](Cc1ccc(OS(=O)(=O)O)cc1)C(=O)O [O-sulfo-L-tyrosine],2.14
18,"Nc1ncnc2c1ncn2[C@@H]1O[C@H](CSCC[C@H](N)C(=O)O)[C@@H](O)[C@H]1O [S-adenosylhomocysteine (SAH), S-adenosylhomocysteine]",1.3
19,C[C@H](CCC(=O)O)[C@H]1CC[C@H]2[C@@H]3[C@H](O)C[C@@H]4C[C@H](O)CC[C@]4(C)[C@H]3CC[C@]12C [chenodeoxycholate],9.75
20,C[C@H](CCC(=O)O)[C@H]1CC[C@H]2[C@@H]3[C@H](O)C[C@@H]4C[C@H](O)CC[C@]4(C)[C@H]3C[C@H](O)[C@]12C [cholate],4.51
21,CN(CC(=O)O)C(=N)N [creatine],1.75
22,NC(=O)NCCC[C@H](NC(=O)CC[C@H](N)C(=O)O)C(=O)O [gamma-glutamylcitrulline],1.2
23,N[C@@H](CCC(=O)N[C@@H](Cc1c[nH]cn1)C(=O)O)C(=O)O [gamma-glutamylhistidine],0.87
24,O=C(O)CNC(=O)c1ccccc1 [hippurate],2.0 and 1.99
25,O[C@H]1[C@H](O)[C@@H](O)[C@H](O)[C@@H](O)[C@H]1O [myo-inositol],1.53

row,Molecule,"Serum biochemical quantity ratio, Ratio (wild dolphins compared to Navy dolphins)"
1,"COc1cc(C(O)C(=O)O)ccc1O (stereo not drawn) [vanillylmandelate (VMA), vanillylmandelate]",1.23
2,O=c1[nH]c(=O)c2ncn([C@@H]3O[C@H](CO)[C@@H](O)[C@H]3O)c2[nH]1 [xanthosine],2.1 and 2.01
3,benzoylcarnitine,2.14
4,methylnaphthyl sulfate,0.73
5,phosphatidylcholine (20:0/16:1),5.81
6,phosphatidylcholine (20:0/18:1),7.04
7,phosphatidylcholine (20:0/18:2),3.66
8,phosphatidylcholine (20:0/20:3),2.63
9,phosphatidylcholine (20:0/20:4),3.99
10,phosphatidylcholine (20:0/20:5),1.86
11,phosphatidylethanolamine (18:1/22:0),6.36
12,phosphatidylethanolamine (P-16:0/18:0),1.35
13,phosphatidylethanolamine (P-18:0/22:2) [PE (P-18:0/22:2)],0.96
14,triacylglycerol 52:1-FA20:0,9.47
15,triacylglycerol 52:2-FA20:0,7.47
16,triacylglycerol 54:1-FA18:1,4.44
17,triacylglycerol 54:1-FA20:0,9.48
18,triacylglycerol 54:2-FA20:0,8.41
19,triacylglycerol 54:4-FA20:4,2.38
20,triacylglycerol 56:1-FA18:1,4.46
21,triacylglycerol 56:2-FA20:0,10.95
22,triacylglycerol 56:4-FA22:4,9.19
23,triacylglycerol 58:5-FA18:1,2.57
24,triacylglycerol 58:6-FA22:4,2.47
25,triacylglycerol 58:7-FA22:4,1.47

# Tested on: Amyloid-β plaque density
# Assay: Serum biochemical age-group ratio in dolphins with high vs low brain amyloid-β plaque density
# Type: in vivo, bottlenose dolphins (Tursiops truncatus)
# Details: high amyloid-β plaque density dolphins; 15-to-25-year old over 3-to-15-year old
row,Molecule,"Serum biochemical quantity ratio, High density"
1,CC(C)C[C@H](NC(C)C(=O)O)C(=O)O (stereo partly drawn) [1-carboxyethylleucine],0.29
2,CC(N[C@H](C(=O)O)C(C)C)C(=O)O (stereo partly drawn) [1-carboxyethylvaline],0.60
3,CCC(C)C(=O)OC(CC(=O)[O-])C[N+](C)(C)C (stereo not drawn) [2-methylbutyrylcarnitine (C5)],0.49
4,CC(=O)N[C@@H](C)C(=O)O [N-acetylalanine],0.76
5,CC(=O)NCC(=O)O [N-acetylglycine],0.92
6,O=C(O)CNC(=O)c1ccccc1 [hippurate],0.58
7,O=c1[nH]c(=O)c2ncn([C@@H]3O[C@H](CO)[C@@H](O)[C@H]3O)c2[nH]1 [xanthosine],0.69
8,benzoylcarnitine,0.55
9,methylnaphthyl sulfate,0.43
10,phosphatidylcholine (20:0/16:1),0.39
11,phosphatidylcholine (20:0/18:1),0.33
12,phosphatidylcholine (20:0/18:2),0.55
13,phosphatidylcholine (20:0/20:3),0.74
14,phosphatidylcholine (20:0/20:4),0.50
15,phosphatidylcholine (20:0/20:5),0.76
16,phosphatidylethanolamine (18:1/22:0),0.38

# Same assay, conditions: high amyloid-β plaque density dolphins; *3-15 years old:0-2 years old
row,Molecule,"Serum biochemical quantity ratio, High density"
1,phosphatidylethanolamine (P-16:0/18:0),0.92

# Same assay, conditions: high amyloid-β plaque density dolphins; ^+26-35 years old:15-25 years old
row,Molecule,"Serum biochemical quantity ratio, High density"
1,triacylglycerol 52:1-FA20:0,0.15
2,triacylglycerol 52:2-FA20:0,0.18
3,triacylglycerol 54:1-FA18:1,0.40
4,triacylglycerol 54:1-FA20:0,0.16
5,triacylglycerol 54:2-FA20:0,0.17
6,triacylglycerol 54:4-FA20:4,0.48
7,triacylglycerol 56:1-FA18:1,0.35
8,triacylglycerol 56:2-FA20:0,0.13
9,triacylglycerol 56:4-FA22:4,0.11
10,triacylglycerol 58:5-FA18:1,0.46
11,triacylglycerol 58:6-FA22:4,0.44
12,triacylglycerol 58:7-FA22:4,0.53

# Same assay, conditions: low amyloid-β plaque density dolphins; 15-to-25-year old over 3-to-15-year old
row,Molecule,"Serum biochemical quantity ratio, Low density"
1,CC(C)C[C@H](NC(C)C(=O)O)C(=O)O (stereo partly drawn) [1-carboxyethylleucine],1.28
2,CC(N[C@H](C(=O)O)C(C)C)C(=O)O (stereo partly drawn) [1-carboxyethylvaline],1.32
3,CCC(C)C(=O)OC(CC(=O)[O-])C[N+](C)(C)C (stereo not drawn) [2-methylbutyrylcarnitine (C5)],1.06
4,CC(=O)N[C@@H](C)C(=O)O [N-acetylalanine],1.09
5,CC(=O)NCC(=O)O [N-acetylglycine],1.06
6,O=C(O)CNC(=O)c1ccccc1 [hippurate],1.11
7,O=c1[nH]c(=O)c2ncn([C@@H]3O[C@H](CO)[C@@H](O)[C@H]3O)c2[nH]1 [xanthosine],1.14
8,benzoylcarnitine,1.21
9,methylnaphthyl sulfate,1.17
10,phosphatidylcholine (20:0/16:1),1.11
11,phosphatidylcholine (20:0/18:1),1.02
12,phosphatidylcholine (20:0/18:2),1.13
13,phosphatidylcholine (20:0/20:3),0.94
14,phosphatidylcholine (20:0/20:4),1.00
15,phosphatidylcholine (20:0/20:5),1.14
16,phosphatidylethanolamine (18:1/22:0),1.16

# Same assay, conditions: low amyloid-β plaque density dolphins; *3-15 years old:0-2 years old
row,Molecule,"Serum biochemical quantity ratio, Low density"
1,phosphatidylethanolamine (P-16:0/18:0),1.00

# Same assay, conditions: low amyloid-β plaque density dolphins; ^+26-35 years old:15-25 years old
row,Molecule,"Serum biochemical quantity ratio, Low density"
1,triacylglycerol 52:1-FA20:0,1.19
2,triacylglycerol 52:2-FA20:0,1.34
3,triacylglycerol 54:1-FA18:1,1.15
4,triacylglycerol 54:1-FA20:0,1.09
5,triacylglycerol 54:2-FA20:0,1.24
6,triacylglycerol 54:4-FA20:4,1.13
7,triacylglycerol 56:1-FA18:1,1.01
8,triacylglycerol 56:2-FA20:0,1.06
9,triacylglycerol 56:4-FA22:4,0.75
10,triacylglycerol 58:5-FA18:1,1.02
11,triacylglycerol 58:6-FA22:4,0.91
12,triacylglycerol 58:7-FA22:4,0.91

# Tested on: Neuronal iron density
# Assay: Serum biochemical age-group ratio in dolphins with high vs low neuronal iron density
# Type: in vivo, bottlenose dolphins (Tursiops truncatus)
# Details: high neuronal iron density dolphins; 15-to-25-year old over 3-to-15-year old
row,Molecule,"Serum biochemical quantity ratio, High density"
1,CC(CO)C(=O)O (stereo not drawn) [3-hydroxyisobutyrate],0.86
2,O=C1CC[C@@H](C(=O)O)N1 [5-oxoproline],0.76

# Same assay, conditions: high neuronal iron density dolphins; *3-15 years old:0-2 years old
row,Molecule,"Serum biochemical quantity ratio, High density"
1,CC(C)C(=O)C(=O)O [3-methyl-2-oxobutyrate],0.66
2,CCC(C)C(=O)C(=O)O (stereo not drawn) [3-methyl-2-oxovalerate],0.68
3,CC(C)CC(=O)C(=O)O [4-methyl-2-oxopentanoate],0.68
4,CC(=O)NCCCCN [N-acetylputrescine],0.76

# Same assay, conditions: low neuronal iron density dolphins; 15-to-25-year old over 3-to-15-year old
row,Molecule,"Serum biochemical quantity ratio, Low density"
1,CC(CO)C(=O)O (stereo not drawn) [3-hydroxyisobutyrate],1.67
2,O=C1CC[C@@H](C(=O)O)N1 [5-oxoproline],1.41

# Same assay, conditions: low neuronal iron density dolphins; *3-15 years old:0-2 years old
row,Molecule,"Serum biochemical quantity ratio, Low density"
1,CC(C)C(=O)C(=O)O [3-methyl-2-oxobutyrate],1.86
2,CCC(C)C(=O)C(=O)O (stereo not drawn) [3-methyl-2-oxovalerate],1.42
3,CC(C)CC(=O)C(=O)O [4-methyl-2-oxopentanoate],1.42
4,CC(=O)NCCCCN [N-acetylputrescine],1.07

# Reference: patent US12427179B2, “Compositions and methods for diagnosis and treatment of neurodegenerative diseases” (EPITRACKER, INC., priority 2019, dated 2025)
